Article PMC6262536 (Cells, 2018)
Values joined by “and” are separate entries in the source; they are usually repeats but may differ in a detail not shown here. Equal values may be shown once.

Experiments:
[1] = test system: human breast adenocarcinoma (MCF-7); type: cell-based; conditions: SI = IC50 BALB/3T3 / IC50 MCF-7
Source text: (§1) The BALB/3T3 cell line was purchased from the American Type Culture Collection (ATCC, Manassas, VA, USA), A549 and MCF-7 cell lines—from European Collection of Authenticated Cell Cultures (Salisbury, UK), LoVo cell line was purchased from the ATCC (ATCC, Manassas, VA, USA), and LoVo/DX by courtesy of Prof. E. Borowski (Technical University of Gdańsk, Gdańsk, Poland). All the cell lines are maintained in the Institute of Immunology and Experimental Therapy (IIET), Wroclaw, Poland. […] Human breast adenocarcinoma cell line was cultured in mixture of Eagle medium (IIET, Wroclaw, Poland), supplemented with 10% fetal bovine serum, 2 mM L-glutamine, 8 μg/mL insulin and 1% amino-acids (Sigma-Aldrich, Merck KGaA, Saint Louis, MO, USA). […] Murine embryonic fibroblast cells were cultured in Dulbecco medium (Life Technologies Limited, Paisley, UK), supplemented with 10% fetal bovine serum (GE Healthcare, Logan, UT, USA) and 2 mM glutamine (Sigma-Aldrich, Merck KGaA, Saint Louis, MO, USA). All culture media contained antibiotics: 100 U/mL penicillin and 100 μg/mL streptomycin (Polfa-Tarchomin, Warsaw, Poland). All cell lines were cultured during entire experiment in humid atmosphere at 37 °C and 5% CO2. […] The procedure is repeated every year or in the case of less frequently used lines: after thawing.
(§2) Twenty-four hours before adding the tested compounds, all cell lines were seeded in 96-well plates (Sarstedt, Nümbrecht, Germany) in appropriate media with 10^4 cells per well. All cell lines were exposed to each tested agent at four different concentrations in the range 100–0.01 μg/mL for 72 h. […] Additionally, all cell lines were exposed to DMSO (solvent used for tested compounds) (POCh, Gliwice, Poland) at concentrations corresponding to those present in tested agents’ dilutions. After 72 h sulforhodamine B assay (SRB) was performed.
(§3) After 72 h of incubation with the tested compounds, cells were fixed in situ by gently adding of 50 μL per well of cold 50% trichloroacetic acid TCA (POCh, Gliwice, Poland) and were incubated at 4 °C for one hour. Following, wells were washed four times with water and air dried. Next, 50 μL of 0.1% solution of sulforhodamine B (Sigma-Aldrich, Merck KGaA, Saint Louis, MO, USA) in 1% acetic acid (POCh, Gliwice, Poland) were added to each well and plates were incubated at room temperature for 0.5 h. After incubation time, unbound dye was removed by washing plates four times with 1% acetic acid whereas stain bound to cells was solubilized with 10 mM Tris base (Sigma-Aldrich, Steinheim, Germany). Absorbance of each solution was read at Synergy H4 Hybrid Multi-Mode Microplate Reader (BioTek Instruments, Inc., Winooski, VT, USA) at the 540 nm wavelength.
(§4) Compounds at each concentration were tested in triplicates in single experiment and each experiment was repeated at least three times independently. The Resistance Index (RI) was defined as the ratio of IC50 for a given compound calculated for resistant cell line to that measured for its parental drug sensitive cell line (Table 1).

[2] = test system: human colon adenocarcinoma cell line (LoVo); type: cell-based; conditions: SI = IC50 BALB/3T3 / IC50 LoVo
Source text: as §1, §2, §3, §4

[3] = test system: human lung adenocarcinoma (A549); type: cell-based; conditions: SI = IC50 BALB/3T3 / IC50 A549
Source text: as §1, §2, §3, §4

[4] = test system: doxorubicin-resistant subline (LoVo/DX); type: cell-based, human; conditions: for LoVo/DX RI (Resistance Index): RI = IC50 LoVo/DX / IC50 LoVo; for LoVo/DX SI: SI = IC50 BALB/3T3 / IC50 LoVo/DX
Source text: as §1, §2, §3, §4

| Compound | MCF-7 SI [1] | LoVo SI [2] | A549 SI [3] | LoVo/DX RI (Resistance Index) [4] | LoVo/DX SI [4] |
| --- | --- | --- | --- | --- | --- |
| N.N.[Cl][Pt][Cl] [Cisplatin, reference compound] | 0.4 | 0.9 | 0.6 | 1.3 | 0.7 |
| COc1c(Cl)c2c(c(OC)c1OC)-c1ccc(OC)c(=O)cc1[C@@H](NC(C)=O)CC2 [Compound 3, 4-chlorocolchicine] | 6.0 | 2.0 | 3.0 | 11.4 | 0.2 |
| COc1c(Cl)c2c(c(OC)c1OC)-c1ccc(SC)c(=O)cc1[C@@H](NC(C)=O)CC2 [Compound 4] | 1.0 | 1.0 | 1.0 | 5.1 | 0.2 |
| COc1c(Br)c2c(c(OC)c1OC)-c1ccc(OC)c(=O)cc1[C@@H](NC(C)=O)CC2 [Compound 5, 4-bromocolchicine] | 5.26 and 5.3 | 1.7 | 1.4 | 18.5 | 0.1 |
| COc1c(Br)c2c(c(OC)c1OC)-c1ccc(SC)c(=O)cc1[C@@H](NC(C)=O)CC2 [Compound 6, 4-bromothiocolchine] | 6.76–11.85 and 6.9 | 5.45–16.43 and 7.4 | 10.08–10.45 and 10.3 | 9.6 | 0.8 |
| COc1c(I)c2c(c(OC)c1OC)-c1ccc(OC)c(=O)cc1[C@@H](NC(C)=O)CC2 [Compound 7, 4-iodocolchicine] | 1.4 | 13.5 | 1.4 | 278.0 | 0.1 |
| COc1c(I)c2c(c(OC)c1OC)-c1ccc(SC)c(=O)cc1[C@@H](NC(C)=O)CC2 [Compound 8, 4-iodothiocolchicine] | 6.76–11.85 and 6.8 | – | 10.08–10.45 and 10.5 | 91.7 | 0.2 |
